Data taken from the supplement of paper PMC6078165.

Tested on: BT20
Assay: relative JC-1 red fluorescence (viability) vs pre-drug, coculture with fibroblast (fraction); higher = more viable cancer cells
Experimental: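 JC-1 labelled TNBC cells cocultured 1:1 (1,500 cells each) with CellTrace Violet stained primary or stromal fibroblasts in 384-well plates in FluoroBrite medium, treated with one of 42 anticancer drugs at 0.1, 1, 10 or 100 uM. JC-1 red fluorescence (mitochondrial integrity in cancer cells only) was read by plate reader every 8 h for 72 h. Values are normalised to each well's pre-drug value. The stock of one drug was tenfold lower, so its dose labels may be too high.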

O=C(CCCCCCC(=O)Nc1ccccc1)NO [Vorinostat]
relative JC-1 red fluorescence
Conditions | 8 h | 16 h | 24 h | 32 h | 40 h | 48 h | 56 h | 64 h | 72 h
10 µM, coculture fibroblast: C12385 | 0.915 | 0.818 | 0.776 | 0.678 | 0.581 | 0.535 | 0.5 | 0.468 | 0.445
10 µM, coculture fibroblast: H6013 | 0.9399 | 0.842 | 0.749 | 0.677 | 0.64 | 0.629 | 0.636 | 0.627 | 0.6393
10 µM, coculture fibroblast: H6019 | 0.872 | 0.79 | 0.778 | 0.72 | 0.656 | 0.622 | 0.592 | 0.584 | 0.586
10 µM, coculture fibroblast: H6076 | 0.928 | 0.875 | 0.781 | 0.724 | 0.648 | 0.614 | 0.602 | 0.598 | 0.569
10 µM, coculture fibroblast: H6231 | 0.803 | 0.911 | 0.756 | 0.671 | 0.617 | 0.567 | 0.538 | 0.508 | 0.484
10 µM, coculture fibroblast: HADF | 0.842 | 0.8749 | 0.83 | 0.763 | 0.723 | 0.685 | 0.676 | 0.673 | 0.638
10 µM, coculture fibroblast: HCFa | 0.918 | 0.85 | 0.824 | 0.698 | 0.593 | 0.5585 | 0.5616 | 0.55778 | 0.557
10 µM, coculture fibroblast: HCPF | 0.876 | 0.8788 | 0.781 | 0.702 | 0.64 | 0.58 | 0.535 | 0.521 | 0.486
10 µM, coculture fibroblast: HHSteC | 0.9141 | 0.835 | 0.8129 | 0.7056 | 0.66 | 0.615 | 0.599 | 0.585 | 0.57
10 µM, coculture fibroblast: HMF | 0.874 | 0.896 | 0.7631 | 0.6703 | 0.548 | 0.471 | 0.421 | 0.385 | 0.353
10 µM, coculture fibroblast: HPFa | 0.945 | 0.8331 | 0.79 | 0.6897 | 0.636 | 0.581 | 0.5517 | 0.535 | 0.516
10 µM, coculture fibroblast: HUF | 0.9152 | 0.791 | 0.734 | 0.617 | 0.528 | 0.49 | 0.473 | 0.464 | 0.455
10 µM, coculture fibroblast: Hs5 | 0.716 | 0.927 | 0.7935 | 0.721 | 0.642 | 0.589 | 0.553 | 0.53 | 0.515
10 µM, coculture fibroblast: Hs27A | 0.756 | 0.835 | 0.826 | 0.944 | 0.80935 | 0.748 | 0.823 | 0.727 | 0.78
10 µM, coculture fibroblast: Hs343T | 0.942 | 0.835 | 0.729 | 0.667 | 0.61 | 0.573 | 0.526 | 0.513 | 0.477
10 µM, coculture fibroblast: WS1 | 0.8496 | 0.747 | 0.686 | 0.6 | 0.517 | 0.46 | 0.411 | 0.381 | 0.364
100 µM, coculture fibroblast: C12385 | 0.9059 | 0.82 | 0.7636 | 0.666 | 0.58 | 0.545 | 0.499 | 0.472 | 0.46
100 µM, coculture fibroblast: H6013 | 0.973 | 0.895 | 0.88 | 0.79 | 0.701 | 0.686 | 0.698 | 0.685 | 0.675
100 µM, coculture fibroblast: H6019 | 0.8487 | 0.774 | 0.74 | 0.687 | 0.615 | 0.595 | 0.584 | 0.59 | 0.598
100 µM, coculture fibroblast: H6076 | 0.846 | 0.87 | 0.776 | 0.717 | 0.6557 | 0.6138 | 0.594 | 0.589 | 0.576
100 µM, coculture fibroblast: H6231 | 0.764 | 0.91 | 0.783 | 0.691 | 0.596 | 0.521 | 0.482 | 0.482 | 0.446
100 µM, coculture fibroblast: HADF | 0.827 | 0.89 | 0.794 | 0.868 | 0.862 | 0.821 | 0.776 | 0.768 | 0.722
100 µM, coculture fibroblast: HCFa | 0.937 | 0.854 | 0.838 | 0.737 | 0.689 | 0.655 | 0.654 | 0.654 | 0.64
100 µM, coculture fibroblast: HCPF | 0.822 | 0.927 | 0.792 | 0.701 | 0.608 | 0.548 | 0.487 | 0.484 | 0.452
100 µM, coculture fibroblast: HHSteC | 0.957 | 0.868 | 0.816 | 0.709 | 0.634 | 0.587 | 0.561 | 0.543 | 0.501
100 µM, coculture fibroblast: HMF | 0.938 | 0.855 | 0.779 | 0.692 | 0.622 | 0.558 | 0.516 | 0.496 | 0.468
100 µM, coculture fibroblast: HPFa | 0.934 | 0.845 | 0.817 | 0.707 | 0.652 | 0.609 | 0.595 | 0.595 | 0.569
100 µM, coculture fibroblast: HUF | 0.913 | 0.835 | 0.783 | 0.645 | 0.54 | 0.496 | 0.471 | 0.45 | 0.436
100 µM, coculture fibroblast: Hs5 | 0.756 | 0.8838 | 0.799 | 0.728 | 0.667 | 0.629 | 0.604 | 0.596 | 0.58
100 µM, coculture fibroblast: Hs27A | 0.913 | 0.8325 | 0.931 | 0.906 | 0.845 | 0.833 | 0.864 | 0.848 | 0.81
100 µM, coculture fibroblast: Hs343T | 0.77 | 0.876 | 0.74332 | 0.648 | 0.555 | 0.495 | 0.447 | 0.4185 | 0.384
100 µM, coculture fibroblast: WS1 | 0.865 | 0.7724 | 0.725 | 0.616 | 0.529 | 0.505 | 0.482 | 0.461 | 0.453

Values are relative to the signal before dosing, not to a vehicle control; the signal also falls without drug.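 Fibroblast labels name human fibroblasts: mostly primary ones from tissues such as uterus (C12385, HUF), lung (H6013), bone (Hs27A), adrenal (HADF) and skin (WS1), plus mammary HMF and breast cancer-associated Hs343T. The cancer cells are basal-like or mesenchymal-like triple-negative breast cancer lines. The paper calls a changed response a hit when it shifts by more than 3x the replicate standard deviation. The tissue of the other fibroblasts is not given here.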
